Values of other authors, collected in patent publication US20160160189A1, “Truncated Constructs of RIPK3 and Related Uses” (ST. JUDE CHILDREN'S RESEARCH HOSPITAL, priority 2013, published 2016).
For at least one compound, name, drawing or mass did not settle the structure.

Conditions: cited from earlier work

Question: With CC[C@H](C(=O)N1CCCC[C@H]1C(=O)O[C@H](CCc1ccc(OC)c(OC)c1)c1cccc(OCC(=O)NCC(CNC(=O)COc2cccc([C@@H](CCc3ccc(OC)c(OC)c3)OC(=O)[C@@H]3CCCCN3C(=O)[C@@H](CC)c3cc(OC)c(OC)c(OC)c3)c2)CN(C)C)c1)c1cc(OC)c(OC)c(OC)c1 [AP20187] as the molecule, how does the immunosuppressive activity read?
Answer: Its immunosuppressive activity is “no immunosuppressive activity”.
